Measured values taken from paper doi:10.1101/2025.07.15.664663.
Results are given in words; binding and its absence hold for the method and conditions named. Some entries that bind do so weakly or less than the wild type.

Legend:
[1] = biological target: hen egg-white lysozyme (hen) (UniProt P00698); assay: ITC
[2] = biological target: hen egg-white lysozyme (hen) (UniProt P00698); assay: solvent PRE NMR
[3] = biological target: hen egg-white lysozyme (hen) (UniProt P00698); assay: intermolecular PRE NMR

Row | Binder | binding [1] | binding [2] | binding [3]
1 | Escherichia coli chaperone Spy (protein, UniProt P77754 24-161) ADTTTAAPADAKPMMHHKGKFGPHQDMMFKDLNLTDAQKQQIREIMKGQRDQMKRPPLEERRAMHDIIASDTFDKVKAEAQIAKMEEQRKANMLAHMETQNKIYNILTPEQKKQFNANFEKRLTERPAAKGKMPATAE | binds weakly | binds weakly | –
2 | MTSL-attached T35C mutant of Spy (protein, UniProt P77754 24-161, MTSL spin label on the cysteine at 35) ADTTTAAPADAKPMMHHKGKFGPHQDMMFKDLNLCDAQKQQIREIMKGQRDQMKRPPLEERRAMHDIIASDTFDKVKAEAQIAKMEEQRKANMLAHMETQNKIYNILTPEQKKQFNANFEKRLTERPAAKGKMPATAE | – | – | binds weakly
3 | MTSL-attached M53C mutant of Spy (protein, UniProt P77754 24-161, MTSL spin label on the cysteine at 53) ADTTTAAPADAKPMMHHKGKFGPHQDMMFKDLNLTDAQKQQIREIMKGQRDQCKRPPLEERRAMHDIIASDTFDKVKAEAQIAKMEEQRKANMLAHMETQNKIYNILTPEQKKQFNANFEKRLTERPAAKGKMPATAE | – | – | binds weakly

The remaining lines, values ahead:

Row | binding [1] | binding [2] | binding [3] | Binder
4 | – | – | binds weakly | MTSL-attached T124C mutant of Spy (protein, UniProt P77754 24-161, MTSL spin label on the cysteine at 124) ADTTTAAPADAKPMMHHKGKFGPHQDMMFKDLNLTDAQKQQIREIMKGQRDQMKRPPLEERRAMHDIIASDTFDKVKAEAQIAKMEEQRKANMLAHMETQNKIYNILTPEQKKQFNANFEKRLCERPAAKGKMPATAE
5 | – | – | binds weakly | MTSL-attached T99C mutant of Spy (protein, UniProt P77754 24-161, MTSL spin label on the cysteine at 99) ADTTTAAPADAKPMMHHKGKFGPHQDMMFKDLNLTDAQKQQIREIMKGQRDQMKRPPLEERRAMHDIIASDTFDKVKAEAQIAKMEEQRKANMLAHMECQNKIYNILTPEQKKQFNANFEKRLTERPAAKGKMPATAE
